In publication PMC10165269:
No constants are given. Whether binding was seen depends on the method and setting. In cells and extracts the contact can be indirect. Some binding calls cover weakened binding; strength is not graded here.

Sequences of proteins named here, by UniProt entry; tags and fusion partners are left off.
UniProt Q7Z434: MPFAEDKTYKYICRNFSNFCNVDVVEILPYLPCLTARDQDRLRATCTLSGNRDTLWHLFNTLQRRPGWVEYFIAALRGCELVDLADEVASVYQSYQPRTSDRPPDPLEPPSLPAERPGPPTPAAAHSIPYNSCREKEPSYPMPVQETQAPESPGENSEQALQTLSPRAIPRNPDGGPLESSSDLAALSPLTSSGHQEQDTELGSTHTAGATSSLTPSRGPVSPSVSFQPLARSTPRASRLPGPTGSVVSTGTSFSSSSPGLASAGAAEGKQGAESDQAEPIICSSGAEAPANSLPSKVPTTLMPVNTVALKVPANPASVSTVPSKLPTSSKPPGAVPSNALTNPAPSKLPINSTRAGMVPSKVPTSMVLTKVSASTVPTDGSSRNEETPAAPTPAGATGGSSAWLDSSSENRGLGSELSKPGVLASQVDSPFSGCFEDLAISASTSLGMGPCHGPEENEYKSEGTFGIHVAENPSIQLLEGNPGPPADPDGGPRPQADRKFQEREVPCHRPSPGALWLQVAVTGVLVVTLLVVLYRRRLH
UniProt Q13263: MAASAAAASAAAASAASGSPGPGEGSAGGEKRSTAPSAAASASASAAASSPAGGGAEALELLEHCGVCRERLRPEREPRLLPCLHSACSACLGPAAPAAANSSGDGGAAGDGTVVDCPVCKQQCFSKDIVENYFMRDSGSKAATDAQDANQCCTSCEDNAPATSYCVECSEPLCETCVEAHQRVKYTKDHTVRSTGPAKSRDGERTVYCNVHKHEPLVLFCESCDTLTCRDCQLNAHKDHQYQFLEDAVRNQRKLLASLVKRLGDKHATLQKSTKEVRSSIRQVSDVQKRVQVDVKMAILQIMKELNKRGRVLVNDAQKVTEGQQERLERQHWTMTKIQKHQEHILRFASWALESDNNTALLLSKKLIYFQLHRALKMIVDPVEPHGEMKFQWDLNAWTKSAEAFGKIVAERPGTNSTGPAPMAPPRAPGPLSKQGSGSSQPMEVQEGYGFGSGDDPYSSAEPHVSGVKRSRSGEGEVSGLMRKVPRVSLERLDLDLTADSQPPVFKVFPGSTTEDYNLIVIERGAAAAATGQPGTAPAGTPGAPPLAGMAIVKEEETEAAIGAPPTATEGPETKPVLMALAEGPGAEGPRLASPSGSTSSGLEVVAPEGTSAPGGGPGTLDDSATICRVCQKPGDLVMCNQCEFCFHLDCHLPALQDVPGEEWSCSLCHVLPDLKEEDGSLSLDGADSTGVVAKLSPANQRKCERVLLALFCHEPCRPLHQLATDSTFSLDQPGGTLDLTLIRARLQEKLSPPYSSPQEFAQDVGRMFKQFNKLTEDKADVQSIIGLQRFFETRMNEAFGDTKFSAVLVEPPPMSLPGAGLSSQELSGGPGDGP

How the values were obtained:
[1] = molecular target: HA-tagged MAVS (human) (UniProt Q7Z434); assay: co-IP; 293T cells cotransfected with HA-tagged MAVS and Flag-tagged TRIM28 or its mutants, 48 h; RIPA lysate; immunoprecipitated with an anti-HA antibody on Protein A/G magnetic beads, 2 h at 4 °C; immunoblot with an anti-Flag antibody
[2] = molecular target: mitochondrial antiviral signaling (MAVS) protein, endogenous (human (endogenous in HEK293T)) (UniProt Q7Z434); assay: co-IP; endogenous proteins of 293T cells, uninfected or infected with SeV (MOI = 1) for the indicated times; RIPA lysate; immunoprecipitated with an anti-MAVS antibody on Protein A/G magnetic beads, 2 h at 4 °C; immunoblot with an anti-TRIM28 antibody

binding [1] | binding [2] | Substance
binds | – | Flag-tagged TRIM28 (TRIM28-WT) (from UniProt Q13263 1-835)
– | binds | tripartite motif 28 (TRIM28), endogenous (from UniProt Q13263 1-835)
